Results published in PubChem BioAssay AID540256 (National Center for Advancing Translational Sciences (NCATS), 2011).
The whole screen tested about 300,000 compounds, of which about 3,700 (1.2%) were called active. The shares of active, inactive and inconclusive entries below differ from those in the screen. The call rests on the fitted dose curve; tested in HEK293 cells. Where the call is inconclusive, the potency comes from a doubtful curve fit.

Experiment: qHTS for Inhibitors of binding or entry into cells for Lassa Virus; further: nearly all actives have a fitted effect of over 50% in size
Details: Lassa virus pseudotype entry inhibition, cell reporter; series mostly up to 37.9 µM
Potency means the concentration at half of the fitted maximal effect.

SMILES | Potency
Cc1cc(N2C(=O)[C@@H]3[C@H](C2=O)[C@@H]2C[C@H]3C(Br)C2Br)no1 (stereo partly specified) | inconclusive: 25.1 µM [inhibitor, single point]
O=C(c1ccc(Cl)c(S(=O)(=O)N2CCCC2)c1)N1CCN(c2ccccc2F)CC1 | inconclusive: 11.2 µM [inhibitor, single point]
Cc1ccc(-c2cc(C(=O)Nc3ccncc3)c3ccccc3n2)cc1 | inconclusive: 35.5 µM [inhibitor, single point]
Cc1cccc2nc(CSCc3ccco3)cn12 | inconclusive: 0.708 µM [activator, single point]
Cc1c(C(=O)c2ccc(Cl)c(Cl)c2)cnc2cc3c(cc12)OCO3 | inconclusive: 6.51 µM [inhibitor, full curve, poor fit]
Cc1ccc(NC(=O)CN2C(=O)S/C(=C/c3ccc(-c4cccc(C(=O)O)c4)o3)C2=O)cc1 | inconclusive: 1.41 µM [inhibitor, full curve, poor fit]
O=C(/C=C/Nc1cccc(O)c1)c1ccccc1 | inconclusive: 29.1 µM [inhibitor, single point]
Cc1ccc(CNC(=O)CSc2nc3ccccc3nc2Cc2ccc(C)cc2)cc1 | inactive
CCN1CCN(c2nc(-c3cccs3)nc3ccccc23)CC1 | inactive
Cc1cc(NC(=O)c2ccc([N+](=O)[O-])cc2)no1 | inconclusive: 1.12 µM [activator, single point]
Cc1ccc(-c2nc3c4c(-c5ccccc5)c(-c5ccccc5)oc4ncn3n2)cc1 | inconclusive: 6.31 µM [activator, single point]
CC(=O)N1CCSc2ccc(S(=O)(=O)NCc3ccccc3)cc21 | inconclusive: 0.562 µM [inhibitor, full curve, poor fit]
c1ccc(CN2CCC(Nc3nc(-c4cccnc4)nc4ccccc34)CC2)cc1 | inconclusive: 35.5 µM [inhibitor, single point]
CCc1ccc(C(=O)CC2(O)C(=O)N(CCc3ccccc3)c3ccc(Cl)cc32)cc1 (stereo unspecified) | inconclusive: 11.2 µM [inhibitor, single point]
CC(C)CNC(=S)N(CCN(C)C)Cc1cc2cc3c(cc2[nH]c1=O)OCO3 | inconclusive: 20 µM [activator, partial curve, poor fit]
O=C(Cn1cnc([N+](=O)[O-])c1)Nc1ccccc1C(F)(F)F | inactive
Cc1cc(C)cc(N(C(C)C(=O)NC2CCCC2)S(C)(=O)=O)c1 (stereo unspecified) | inconclusive: 32.6 µM [activator, single point]
CCC(=O)N1CCN=C1SCc1ccc(Cl)cc1 | inactive
CCN(c1ccccc1)S(=O)(=O)c1cccc(C(=O)N2CCN(S(=O)(=O)c3ccccc3)CC2)c1 | inconclusive: 35.5 µM [inhibitor, single point]
CN(C)S(=O)(=O)c1ccc(N2CCCC2)c(C(=O)Nc2ccccc2)c1 | inactive
O=C(Nc1ccc(Cl)cc1)N(Cc1cccs1)Cc1cccs1 | inactive

Given field by field: part of the list above.
Cc1cccc2nc(CSCc3ccco3)cn12
  Potency: inconclusive: 0.708 µM [activator, single point]
CN(C)S(=O)(=O)c1ccc(N2CCCC2)c(C(=O)Nc2ccccc2)c1
  Potency: inactive
O=C(Nc1ccc(Cl)cc1)N(Cc1cccs1)Cc1cccs1
  Potency: inactive

2 compounds picked at random from those above, as already listed:
SMILES | Potency
CN(C)S(=O)(=O)c1ccc(N2CCCC2)c(C(=O)Nc2ccccc2)c1 | inactive
CC(C)CNC(=S)N(CCN(C)C)Cc1cc2cc3c(cc2[nH]c1=O)OCO3 | inconclusive: 20 µM [activator, partial curve, poor fit]

Further results.

SMILES | Potency
COc1ccc(CCNC(=O)c2cc(=O)c3cc(C)c(C)cc3o2)cc1OC | inconclusive: 35.5 µM [inhibitor, partial curve, poor fit]
COc1ccc(N2CCN(Cc3nc4c(c(=O)[nH]c(=O)n4C)n3Cc3ccccc3F)CC2)cc1 | inactive
C#CC(=O)N(c1ccc(OC)cc1OC)C(C(=O)NC1CCCC1)c1cccs1 (stereo unspecified) | inconclusive: 22.4 µM [inhibitor, single point]
Cc1ccc(CNC(=O)CCCNS(=O)(=O)c2cccc3nonc23)cc1 | inconclusive: 0.651 µM [activator, single point]
COc1cc2c(cc1C=O)OCO2 | inconclusive: 0.891 µM [activator, single point]
O=C(O)C1CC(=O)N(C2CCCCC2)C1c1ccccc1 (stereo unspecified) | inconclusive: 1.26 µM [activator, partial curve, poor fit]
Cc1ccc(Nc2ncnc3sccc23)c(C)c1 | inconclusive: 35.5 µM [inhibitor, partial curve, poor fit]
Cc1cc(NC(=O)CSCC(=O)Nc2ccccc2N2CCCCC2)no1 | inconclusive: 35.5 µM [inhibitor, single point]
O=C(NCc1ccncc1)C(=O)NCC1OCCN1S(=O)(=O)c1cc(F)ccc1F (stereo unspecified) | inconclusive: 31.6 µM [activator, single point]
CCn1c2ccccc2c2cc(NC(=O)COC(=O)c3cccc(S(=O)(=O)NC)c3)ccc21 | inactive
CNC(=O)C1CCC(Cn2c(=O)c3sccc3n(CC(=O)N3CCC(C)CC3)c2=O)CC1 (stereo unspecified) | inactive
Cc1cc(Cl)c2oc(C(=O)N(C)C3CCOC3)c(C)c2c1 (stereo unspecified) | inconclusive: 20 µM [inhibitor, single point]
Cc1ccc(-n2ncc(C(=O)NCc3ccco3)c2C2CCN(C(=O)OC(C)(C)C)CC2)cc1 | inconclusive: 1.41 µM [inhibitor, full curve, poor fit]
O=C(OC(C(=O)Nc1cccc(C(F)(F)F)c1)c1ccccc1)C1CCCCC1 (stereo unspecified) | inconclusive: 17.8 µM [inhibitor, single point]
O=C(OCC(=O)N1CCc2ccccc21)c1c2c(nc3ccccc13)CCCCC2 | inconclusive: 5.62 µM [inhibitor, partial curve, poor fit]
Oc1ccccc1CN(Cc1ccco1)CC(O)COCc1ccc(Cl)cc1 (stereo unspecified) | inconclusive: 29.1 µM [inhibitor, single point]
COc1ccc(-c2nc(CSCC(=O)NCc3ccccc3Cl)c(C)o2)cc1OC | inactive
CCC(C)N1C(=O)NC(=O)C2(Cc3c(ccc4ccccc34)N(C)C2)C1=O (stereo unspecified) | inconclusive: 23.1 µM [inhibitor, partial curve, poor fit]
Cc1c(C(=O)NCc2cccnc2)oc2ccc(S(=O)(=O)N3CCCC(C)C3)cc12 (stereo unspecified) | inconclusive: 29.1 µM [inhibitor, single point]
CCOc1cc(C(=O)NC(=S)Nc2ccc(Cl)c(C(=O)O)c2)cc(OCC)c1OCC | inconclusive: 35.5 µM [inhibitor, partial curve, poor fit]
